# Library screen at single concentrations

The values are deposited in ChEMBL (CHEMBL3988442, “University of Dundee, Small-Polar-MMV Screening Library” (2021)).

Mtb cholesterol medium: 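Phenotypic screen: M. tuberculosis growth, cholesterol and DPPC medium, 4 days; the read-out is not stated. Compounds at 50 µM. Higher reads as more growth inhibition (inferred: compounds with an IC50 in retests scored well above the rest). About 69,000 compounds were tested under these conditions; 0.54% (about 370) showed 50% or more at least once.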
Mtb glucose medium: 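Whole-cell growth test on Mycobacterium tuberculosis, read after 3 days in glucose-containing 7H9 medium; the read-out is not stated. Concentration: 50 µM. Higher reads as more growth inhibition (inferred: compounds with an IC50 in retests scored well above the rest). Of about 69,000 compounds tested this way, about 760 (1.1%) reached 50% or more in at least one test.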

Values are the deposited “Percent Effect”, in %.
The record does not define 0% and 100%; most values in the screen are far below 50% and negative numbers occur (in some assays of this library far below -100).
Compounds were drawn at random from those tested, without regard to their results.
Two or more numbers in one place are separate tests of the same structure; such repeats can differ widely.

compound,Mtb cholesterol medium,Mtb glucose medium
CCC(C)(C)C(=O)N1CCN(C2=NCC(C)S2)CC1 (stereo not drawn),-6.857%,-4.718%
CCOc1ccc2[nH]c(=O)c(CN(C)CCc3cn[nH]c3)cc2c1,2.469% & -20.11%,2.994% & -18.5%
CN(C)CCN1CCOCC2(CCN(Cc3ccc[nH]3)CC2)C1.O=C(O)C(F)(F)F.O=C(O)C(F)(F)F.O=C(O)C(F)(F)F,-7.321%,-1.149% & -43.89%
CN(Cc1ccncc1)C1COC2(CCN(Cc3cccs3)CC2)C1.O=C(O)C(F)(F)F.O=C(O)C(F)(F)F.O=C(O)C(F)(F)F (stereo not drawn),0.6427%,8.21%
CC(C)Oc1ncccc1CNC(=O)NC1CCOc2ccccc21 (stereo not drawn),-6.944%,-0.6669%
CC(C)c1nc(C(=O)N2CCCC(n3cncn3)C2)c[nH]1 (stereo not drawn),-6.573%,-13.63%
COc1ccc(C(C)NC(=O)N2CCNC(=O)CC2)cc1F (stereo not drawn),3.714%,25.17%
CS(=O)(=O)c1ccc(NCc2ccccc2)cn1,29.82%,31.89%
CCOC(=O)C1(Cc2cccc(Cl)c2)CCCN(Cc2ncc[nH]2)C1 (stereo not drawn),8.914%,-1.89% & 11.4%
Cc1ccoc1-c1nnc(CN2CCCC(Cn3cncn3)C2)o1 (stereo not drawn),-4.384%,-7.397%
Cc1ccc(OCCC(=O)NC(C)c2ccncc2)cc1 (stereo not drawn),-1.804% & 3.454%,-40%
Cc1csc(C(Cc2ccsc2)NC(=O)CN(C)Cc2cccnc2)n1.Cl (stereo not drawn),5.202% & 4.289%,6.647%
COc1ccc2c(c1)OCC(Cc1ccc(CN)cn1)C2 (stereo not drawn),-15.37%,-5.68%
CCn1c(=O)nc2n1C(=O)N(c1cccc(Cl)c1)C2,-3.655%,-8.322%
CCC(=O)c1cccc(S(=O)(=O)NC(C)C#N)c1 (stereo not drawn),7.278%,-2.893% & 0.4562%
CN1CCC(Oc2ccc(-n3ccnc3-c3nccn3C)cc2)CC1,1.145%,-2.366% & -6.15%
Cc1cnc(N2CCCC3(COCCN(c4nccs4)C3)C2)nc1 (stereo not drawn),1.054%,-10.23%
Cc1n[nH]c(C2CN(Cc3csc(C4CCCC4)n3)CCO2)n1 (stereo not drawn),10.29%,14.15%
O=C(O)C(F)(F)F.O=C(O)C(F)(F)F.[H][C@@]12C[C@H](c3nc(C)no3)CN(Cc3scnc3C)[C@]1([H])CCO2,-15.89%,2.64%
COc1cccc(CNC(=O)CN2CCCC(Cn3cncn3)C2)c1 (stereo not drawn),15.24%,6.095%
CS(=O)(=O)N1CCCC12CCN(Cc1nccs1)C2.O=C(O)C(F)(F)F (stereo not drawn),24.9%,-15.46% & -2.791%
O=C(Nc1cnn(Cc2ccc(Cl)cc2)c1)N[C@@H]1C=C[C@H](CO)C1,-13.07%,-11.92% & 4.401%
COc1ccc(C[C@H]2CN(Cc3ccoc3)CC[C@H]2OC)cc1.O=C(O)C(F)(F)F,8.694%,-7.489%
Cc1cc(C)c(S(=O)(=O)Nc2cccc3c2OCCO3)cc1C(=O)O,2.03%,3.842%
CN(CC(=O)NCc1ccccn1)C1CCCN(c2cccnn2)C1 (stereo not drawn),12.6%,7.967%
Cl.O=C1NCCCCC1NCc1csc(-c2ccccn2)n1 (stereo not drawn),-19.45%,-26.94%
Cc1nc2ccccn2c1CC(=O)N[C@@H]1CC[C@@H](N2CCCC2)[C@@H]1O,-5.795%,-14.99%
[H][C@]12CCCC(=O)N[C@@]1(C)CCCCN2C(=O)c1ccccn1,-15.43%,-0.08764%
CN(Cc1cnccn1)S(=O)(=O)c1ccc(C(F)(F)F)nc1,103.5%,-9.32%
CS(=O)(=O)c1nnc(NC(=O)CCc2ccc(Cl)s2)[nH]1,8.58%,19.14%
CNCc1n[nH]c(=O)n1CC1CCCCC1,-10.58%,-22.13%
CC(C)CNC(=O)C1=NOC2(CCN(Cc3cccc(C#N)c3)C2)C1 (stereo not drawn),-0.3146%,3.905%
COc1ccc(CNC(=O)N(C)CC(C)(C)O)cc1OC,-4.493%,-3.32%
O=C(Cc1csc(-c2ccco2)n1)N1CCN(c2nccs2)CC1,0.6567%,1.488%
O=C(CCc1ccccc1)N1CCCC(c2n[nH]c3nccnc23)C1 (stereo not drawn),-4.499%,15.49%
Cc1ccc(CN(Cc2ccccn2)C(=O)CCC2CCCN(C)C2)s1 (stereo not drawn),-6.011%,-11.44%
CCC(C)n1cnc(S(=O)(=O)N(Cc2cccnc2)C(C)C)c1 (stereo not drawn),-11.22%,2.677%
CC(=O)N1CCC2(CC1)c1ncc(-c3ccc(F)cc3)n1CCN2C,-2.902%,-11.04%
OCCN(Cc1ccccc1)Cc1ccsc1,15.55%,-28.13% & -4.713%
Cc1nc(CN2CCCC2c2noc(C3CC3)n2)oc1C (stereo not drawn),-4.839%,-17.53%
CCCc1nc(C(C)(C)NC(=O)C2CC(=O)N(CC)C2)no1 (stereo not drawn),-9.818%,-6.67% & -45.13%
Cc1nc(CN2CCN(C(=O)c3ccn(C)c(=O)c3)CC2)cs1,-8.295%,1.221%
CN(Cc1ncnn1C)C(=O)Nc1ccc(OC(F)F)cc1,17.23%,4.818%
Cc1nc(NCCSc2cnn[nH]2)c2c(C)noc2n1,87.3%,19.89%
[H][C@@]12CCCCCN(C)[C@@]1([H])[C@H](c1ccccc1)CN2S(=O)(=O)N(CC)CC,3.409%,-11.24%
[H][C@@]12C[C@@H](c3ccncn3)O[C@]1([H])CN(C(=O)c1c(C)noc1C)C2,0.9279%,10.88%
O=S(=O)(NCC(c1ccsc1)N1CCCCCC1)c1cccs1 (stereo not drawn),-23.32%,-6.79%
COc1nn(C)c2c1CCCN(C(=O)c1cccn1C)C2,-3.644%,-0.7083%
COc1cc(CO)ccc1OCc1nc(C2CC2)no1,0.7891% & -4.337%,-9.705%
Cc1ccc(C2COCCN2C(=O)c2ccc(N(C)C)cc2)o1 (stereo not drawn),-2.904%,13.17%
Cn1cc(CNC2CCS(=O)(=O)C2)c(-c2cc3ccccc3o2)n1 (stereo not drawn),-5.082%,-17.4%
CC(=O)N1CCCC1c1cncc(Oc2ccc(F)cc2)n1 (stereo not drawn),-13.16%,-4.933%
COC(=O)c1cccnc1N1CCC(Oc2cccc(F)c2)CC1,14.79%,34.3%
CCOc1ccc(CN(C)C(C)C(=O)Nc2cc(C)no2)cc1 (stereo not drawn),11.68%,-6.19%
CCN1CCC(CC(=O)N2CCN(c3ccccc3OC)CC2C)CC1 (stereo not drawn),-26.36%,-37.64% & -3.627%
Cc1cc(C(=O)N2CCCC(c3cc(C(F)(F)F)[nH]n3)C2)[nH]n1 (stereo not drawn),6.565%,-8.141% & -1.655%
CC(NCc1cccnc1)c1cc2c(cc1Br)OCCO2 (stereo not drawn),-6.361%,2.349%
COc1cccc(C(C(=O)O)N2CCCN(c3ccnc(C)c3)CC2)c1 (stereo not drawn),-4.387%,-3.88%
Cc1c(NCC(C)(C)C)cccc1C(=O)NCc1ncnn1C,-2.333%,1.266% & 7.225%
CCC(CNC(=O)c1ccc(Br)o1)N1CCc2ccccc2C1 (stereo not drawn),34.57%,59.25%
CC(C)c1n[nH]c(C(=O)Nc2ccncc2)c1Br,9.99%,21.53%
COC(=O)C1CN(Cc2nc(-c3ccccc3)cs2)C[C@@H](C)O1 (stereo partly drawn),7.039%,27.69%

For reference, 3 entries once more:

{"compound": "[H][C@@]12CCCCCN(C)[C@@]1([H])[C@H](c1ccccc1)CN2S(=O)(=O)N(CC)CC", "Mtb cholesterol medium": 3.409, "Mtb glucose medium": -11.24}
{"compound": "CC(C)c1n[nH]c(C(=O)Nc2ccncc2)c1Br", "Mtb cholesterol medium": 9.99, "Mtb glucose medium": 21.53}
{"compound": "Cc1nc(CN2CCCC2c2noc(C3CC3)n2)oc1C", "stereo": "stereo not drawn", "Mtb cholesterol medium": -4.839, "Mtb glucose medium": -17.53}